Where a SMILES comes first, the peptide text is derived from it. Where no end group is shown, it is not given here. [ ]: non-standard residue; d: D form. Phg = N[C@H](C(=O)O)c1ccccc1; Nle = CCCC[C@H](N)C(=O)O; Nva = CCC[C@H](N)C(=O)O
Assay: Circular dichroism (CD) spectroscopy, helix content
Assay type: physicochemical
Settings: 200 µM peptide in PBS pH 7.4 with 20% TFE, 25 °C, from mean residue ellipticity at 222 nm

Point of comparison: EMRLSKFYRDFILQRKK-OH [CSP1-F8Y], “Helicity (%)” value 25.7%. Against it:
- CC[C@H](C)[C@H](NC(=O)[C@H](Cc1ccccc1)NC(=O)[C@H](CC(=O)O)NC(=O)[C@H](CCCNC(=N)N)NC(=O)[C@H](Cc1ccccc1)NC(=O)[C@H](Cc1ccccc1)NC(=O)[C@H](CCCCN)NC(=O)[C@H](CO)NC(=O)[C@H](CC(C)C)NC(=O)[C@H](CCCNC(=N)N)NC(=O)[C@H](CCSC)NC(=O)[C@@H](N)CCC(=O)O)C(=O)N[C@@H](CC(C)C)C(=O)N[C@@H](CCC(N)=O)C(=O)N[C@@H](CCCNC(=N)N)C(=O)N[C@@H](CCCCN)C(=O)N[C@@H](CCCCN)C(=O)O [CSP1, reference compound] — lower, 20.1%
- CC[C@H](C)[C@H](NC(=O)[C@H](Cc1ccccc1)NC(=O)[C@H](CC(=O)O)NC(=O)[C@H](CCCNC(=N)N)NC(=O)[C@H](Cc1ccccc1)NC(=O)[C@@H](NC(=O)[C@H](CCCCN)NC(=O)[C@H](CO)NC(=O)[C@H](CC(C)C)NC(=O)[C@H](CCCNC(=N)N)NC(=O)[C@H](CCSC)NC(=O)[C@@H](N)CCC(=O)O)c1ccccc1)C(=O)N[C@@H](CC(C)C)C(=O)N[C@@H](CCC(N)=O)C(=O)N[C@@H](CCCNC(=N)N)C(=O)N[C@@H](CCCCN)C(=O)N[C@@H](CCCCN)C(=O)O [CSP1-F7FG] (H-EMRLSK[Phg]FRDFILQRKK-OH; N-terminus assumed) — higher, 26.3%
- CC[C@H](C)[C@H](NC(=O)[C@H](Cc1ccccc1)NC(=O)[C@H](CC(=O)O)NC(=O)[C@H](CCCNC(=N)N)NC(=O)[C@H](Cc1ccccc1)NC(=O)[C@H](CCc1ccccc1)NC(=O)[C@H](CCCCN)NC(=O)[C@H](CO)NC(=O)[C@H](CC(C)C)NC(=O)[C@H](CCCNC(=N)N)NC(=O)[C@H](CCSC)NC(=O)[C@@H](N)CCC(=O)O)C(=O)N[C@@H](CC(C)C)C(=O)N[C@@H](CCC(N)=O)C(=O)N[C@@H](CCCNC(=N)N)C(=O)N[C@@H](CCCCN)C(=O)N[C@@H](CCCCN)C(=O)O [CSP1-F7HF] — higher, 26.7%
- CC[C@H](C)[C@H](NC(=O)[C@H](Cc1ccccc1)NC(=O)[C@H](CC(=O)O)NC(=O)[C@H](CCCNC(=N)N)NC(=O)[C@@H](NC(=O)[C@H](Cc1ccccc1)NC(=O)[C@H](CCCCN)NC(=O)[C@H](CO)NC(=O)[C@H](CC(C)C)NC(=O)[C@H](CCCNC(=N)N)NC(=O)[C@H](CCSC)NC(=O)[C@@H](N)CCC(=O)O)c1ccccc1)C(=O)N[C@@H](CC(C)C)C(=O)N[C@@H](CCC(N)=O)C(=O)N[C@@H](CCCNC(=N)N)C(=O)N[C@@H](CCCCN)C(=O)N[C@@H](CCCCN)C(=O)O [CSP1-F8FG] (H-EMRLSKF[Phg]RDFILQRKK-OH; N-terminus assumed) — lower, 13.4%
- CC[C@H](C)[C@H](NC(=O)[C@H](Cc1ccccc1)NC(=O)[C@H](CC(=O)O)NC(=O)[C@H](CCCNC(=N)N)NC(=O)[C@H](CCc1ccccc1)NC(=O)[C@H](Cc1ccccc1)NC(=O)[C@H](CCCCN)NC(=O)[C@H](CO)NC(=O)[C@H](CC(C)C)NC(=O)[C@H](CCCNC(=N)N)NC(=O)[C@H](CCSC)NC(=O)[C@@H](N)CCC(=O)O)C(=O)N[C@@H](CC(C)C)C(=O)N[C@@H](CCC(N)=O)C(=O)N[C@@H](CCCNC(=N)N)C(=O)N[C@@H](CCCCN)C(=O)N[C@@H](CCCCN)C(=O)O [CSP1-F8HF] — lower, 19.4%
- CC[C@H](C)[C@H](NC(=O)[C@@H](NC(=O)[C@H](CC(=O)O)NC(=O)[C@H](CCCNC(=N)N)NC(=O)[C@H](Cc1ccccc1)NC(=O)[C@H](Cc1ccccc1)NC(=O)[C@H](CCCCN)NC(=O)[C@H](CO)NC(=O)[C@H](CC(C)C)NC(=O)[C@H](CCCNC(=N)N)NC(=O)[C@H](CCSC)NC(=O)[C@@H](N)CCC(=O)O)c1ccccc1)C(=O)N[C@@H](CC(C)C)C(=O)N[C@@H](CCC(N)=O)C(=O)N[C@@H](CCCNC(=N)N)C(=O)N[C@@H](CCCCN)C(=O)N[C@@H](CCCCN)C(=O)O [CSP1-F11FG] (H-EMRLSKFFRD[Phg]ILQRKK-OH; N-terminus assumed) — lower, 15.9%
- CC[C@H](C)[C@H](NC(=O)[C@H](CCc1ccccc1)NC(=O)[C@H](CC(=O)O)NC(=O)[C@H](CCCNC(=N)N)NC(=O)[C@H](Cc1ccccc1)NC(=O)[C@H](Cc1ccccc1)NC(=O)[C@H](CCCCN)NC(=O)[C@H](CO)NC(=O)[C@H](CC(C)C)NC(=O)[C@H](CCCNC(=N)N)NC(=O)[C@H](CCSC)NC(=O)[C@@H](N)CCC(=O)O)C(=O)N[C@@H](CC(C)C)C(=O)N[C@@H](CCC(N)=O)C(=O)N[C@@H](CCCNC(=N)N)C(=O)N[C@@H](CCCCN)C(=O)N[C@@H](CCCCN)C(=O)O [CSP1-F11HF] — higher, 32.3%
- CCCC[C@H](NC(=O)[C@H](Cc1ccccc1)NC(=O)[C@H](CC(=O)O)NC(=O)[C@H](CCCNC(=N)N)NC(=O)[C@H](Cc1ccccc1)NC(=O)[C@H](Cc1ccccc1)NC(=O)[C@H](CCCCN)NC(=O)[C@H](CO)NC(=O)[C@H](CC(C)C)NC(=O)[C@H](CCCNC(=N)N)NC(=O)[C@H](CCSC)NC(=O)[C@@H](N)CCC(=O)O)C(=O)N[C@@H](CC(C)C)C(=O)N[C@@H](CCC(N)=O)C(=O)N[C@@H](CCCNC(=N)N)C(=O)N[C@@H](CCCCN)C(=O)N[C@@H](CCCCN)C(=O)O [CSP1-I12NL] (H-EMRLSKFFRDF[Nle]LQRKK-OH; N-terminus assumed) — lower, 24.7%
- CCC[C@H](NC(=O)[C@H](Cc1ccccc1)NC(=O)[C@H](CC(=O)O)NC(=O)[C@H](CCCNC(=N)N)NC(=O)[C@H](Cc1ccccc1)NC(=O)[C@H](Cc1ccccc1)NC(=O)[C@H](CCCCN)NC(=O)[C@H](CO)NC(=O)[C@H](CC(C)C)NC(=O)[C@H](CCCNC(=N)N)NC(=O)[C@H](CCSC)NC(=O)[C@@H](N)CCC(=O)O)C(=O)N[C@@H](CC(C)C)C(=O)N[C@@H](CCC(N)=O)C(=O)N[C@@H](CCCNC(=N)N)C(=O)N[C@@H](CCCCN)C(=O)N[C@@H](CCCCN)C(=O)O [CSP1-I12NV] (H-EMRLSKFFRDF[Nva]LQRKK-OH; N-terminus assumed) — lower, 25.6%
- CCCC[C@H](NC(=O)[C@H](CCCNC(=N)N)NC(=O)[C@H](CCSC)NC(=O)[C@@H](N)CCC(=O)O)C(=O)N[C@@H](CO)C(=O)N[C@@H](CCCCN)C(=O)N[C@@H](Cc1ccccc1)C(=O)N[C@@H](Cc1ccccc1)C(=O)N[C@@H](CCCNC(=N)N)C(=O)N[C@@H](CC(=O)O)C(=O)N[C@@H](Cc1ccccc1)C(=O)N[C@H](C(=O)N[C@@H](CC(C)C)C(=O)N[C@@H](CCC(N)=O)C(=O)N[C@@H](CCCNC(=N)N)C(=O)N[C@@H](CCCCN)C(=O)N[C@@H](CCCCN)C(=O)O)[C@@H](C)CC [CSP1-L4NL] — higher, 29.2%
- CCC[C@H](NC(=O)[C@H](CCCNC(=N)N)NC(=O)[C@H](CCSC)NC(=O)[C@@H](N)CCC(=O)O)C(=O)N[C@@H](CO)C(=O)N[C@@H](CCCCN)C(=O)N[C@@H](Cc1ccccc1)C(=O)N[C@@H](Cc1ccccc1)C(=O)N[C@@H](CCCNC(=N)N)C(=O)N[C@@H](CC(=O)O)C(=O)N[C@@H](Cc1ccccc1)C(=O)N[C@H](C(=O)N[C@@H](CC(C)C)C(=O)N[C@@H](CCC(N)=O)C(=O)N[C@@H](CCCNC(=N)N)C(=O)N[C@@H](CCCCN)C(=O)N[C@@H](CCCCN)C(=O)O)[C@@H](C)CC [CSP1-L4NV] (H-EMR[Nva]SKFFRDFILQRKK-OH; N-terminus assumed) — higher, 34.0%
- CCCC[C@H](NC(=O)[C@@H](NC(=O)[C@H](Cc1ccccc1)NC(=O)[C@H](CC(=O)O)NC(=O)[C@H](CCCNC(=N)N)NC(=O)[C@H](Cc1ccccc1)NC(=O)[C@H](Cc1ccccc1)NC(=O)[C@H](CCCCN)NC(=O)[C@H](CO)NC(=O)[C@H](CC(C)C)NC(=O)[C@H](CCCNC(=N)N)NC(=O)[C@H](CCSC)NC(=O)[C@@H](N)CCC(=O)O)[C@@H](C)CC)C(=O)N[C@@H](CCC(N)=O)C(=O)N[C@@H](CCCNC(=N)N)C(=O)N[C@@H](CCCCN)C(=O)N[C@@H](CCCCN)C(=O)O [CSP1-L13NL] — lower, 17.3%
- CCC[C@H](NC(=O)[C@@H](NC(=O)[C@H](Cc1ccccc1)NC(=O)[C@H](CC(=O)O)NC(=O)[C@H](CCCNC(=N)N)NC(=O)[C@H](Cc1ccccc1)NC(=O)[C@H](Cc1ccccc1)NC(=O)[C@H](CCCCN)NC(=O)[C@H](CO)NC(=O)[C@H](CC(C)C)NC(=O)[C@H](CCCNC(=N)N)NC(=O)[C@H](CCSC)NC(=O)[C@@H](N)CCC(=O)O)[C@@H](C)CC)C(=O)N[C@@H](CCC(N)=O)C(=O)N[C@@H](CCCNC(=N)N)C(=O)N[C@@H](CCCCN)C(=O)N[C@@H](CCCCN)C(=O)O [CSP1-L13NV] (H-EMRLSKFFRDFI[Nva]QRKK-OH; N-terminus assumed) — higher, 30.9%
- EMRISKFFRDFILQRKK-OH [CSP1-L4I] — higher, 34.8%
- EMRLSKYFRDFILQRKK-OH [CSP1-F7Y] — higher, 31.8%
- EMRVSKFFRDFILQRKK-OH [CSP1-L4V] — higher, 30.1%
